Measured values taken from article PMC11408624.
Construct, isoform or probe ends are uncertain for at least one entry. Protein sequences can lack the tags named with them.

Target: T1, CyuR (YbaO, DecR) (UniProt P0ACJ5)
T1 sequence (looked up, limits assumed): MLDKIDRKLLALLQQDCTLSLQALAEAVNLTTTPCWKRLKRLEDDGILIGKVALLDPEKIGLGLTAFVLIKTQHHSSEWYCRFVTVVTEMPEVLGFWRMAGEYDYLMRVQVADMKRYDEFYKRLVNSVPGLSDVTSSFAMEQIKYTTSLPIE
Test: fluorescence polarization
Conditions: no Cys; 20 mM Tris-HCl pH 7.5, 0.1 M NaCl, 0.5 mM EDTA, 10 mM MgSO4, 2 mM DTT, 5 ug/mL herring sperm DNA, 10 nM DNA, 1 h at 30 C, +/- 15 mM L-Cys; recombinant protein; protein details: N-terminal 6xHis

Question: Does “AGGAAAATTGTTGCCATTTAGCCTTTAAAATGGA (double strand) [cyuR upstream CyuR site, C. braakii ortholog]” bind?
Answer: binds
